Data reported in publication PMC8472134.
These are yes or no findings as the source states them, for the method shown. Binding calls can cover weak binding; strength is not graded here. Where a sequence is shown, tags or fusion partners need not be part of it.

Molecular target: T1, N-Myc Downregulated like 1 (NDL1) (Arabidopsis) (UniProt Q9FJT7)
T1 sequence: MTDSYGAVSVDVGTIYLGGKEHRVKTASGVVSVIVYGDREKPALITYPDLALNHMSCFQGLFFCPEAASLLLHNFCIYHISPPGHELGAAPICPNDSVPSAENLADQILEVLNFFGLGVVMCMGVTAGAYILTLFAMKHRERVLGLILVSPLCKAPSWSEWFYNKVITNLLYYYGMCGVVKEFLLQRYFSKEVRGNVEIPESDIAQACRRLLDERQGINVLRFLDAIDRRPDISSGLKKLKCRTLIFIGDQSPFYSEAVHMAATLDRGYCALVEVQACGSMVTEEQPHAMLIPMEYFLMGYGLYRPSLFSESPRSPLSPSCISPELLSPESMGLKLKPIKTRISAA
Experiment: two-hybrid; Gal4-based two-hybrid in yeast AH109; NDL1 with Gal4 DNA-binding domain (pAS-attR), partner with Gal4 activation domain (pACTGW-attR); double transformants on SD/-Leu/-Trp; colony-lift filter beta-galactosidase assay with X-gal, 14-16 h at 30 °C, blue colonies scored positive; NDL1 alone as negative control

## SLT1 (Arabidopsis)
  binding: binds
